PubChem BioAssay AID1259425 – University of Nebraska Medical Center, 2018
Aim: 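Seek colon cancer weak points whose silencing resembles KSR1 loss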 (primary screen). System: HCT116 human colon cancer cells. Knock-down reagent: siRNA pool against human genes, 50 nM siRNA. Measured: 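mRNA of six signature genes measured together by branched-DNA assay after 50 nM siRNA pool, blank removed, divided by geometric mean of two housekeeping genes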. Scale: BNIP3L mRNA: higher = more BNIP3L transcript after knockdown; NDRG1 mRNA: higher = more NDRG1 transcript after knockdown.
This is a random part of about 14,000 deposited reagents. A reagent listed more than once was tested more than once; the source does not tell the runs apart. Further read-outs or replicates are left out here. The record does not give: the time to read-out.

TEFM (GeneID 79736)
- BNIP3L mRNA, set 1: 0.188
- NDRG1 mRNA, set 1: 0.298

FCAMR (GeneID 83953)
- BNIP3L mRNA, set 1: 0.257
- NDRG1 mRNA, set 1: 0.418

DYRK1B (GeneID 9149)
- BNIP3L mRNA, set 1: 0.141
- NDRG1 mRNA, set 1: 0.123

ZSCAN9 (GeneID 7746)
- BNIP3L mRNA, set 1: 0.115
- NDRG1 mRNA, set 1: 0.286

CYB5A (GeneID 1528)
- BNIP3L mRNA, set 1: 0.107
- NDRG1 mRNA, set 1: 0.135

NRM (GeneID 11270)
- BNIP3L mRNA, set 1: 0.212
- NDRG1 mRNA, set 1: 0.525

KRT75 (GeneID 9119)
- BNIP3L mRNA, set 1: 0.079
- NDRG1 mRNA, set 1: 0.0996

ACTR2 (GeneID 10097)
- BNIP3L mRNA, set 1: 0.14
- NDRG1 mRNA, set 1: 0.249

SPEN (GeneID 23013)
- BNIP3L mRNA, set 1: 0.0524
- NDRG1 mRNA, set 1: 0.0999

PIK3CG (GeneID 5294)
- BNIP3L mRNA, set 1: 0.138
- NDRG1 mRNA, set 1: 0.19

PIK3CG (GeneID 5294)
- BNIP3L mRNA, set 1: 0.205
- NDRG1 mRNA, set 1: 0.29

HDAC6 (GeneID 10013)
- BNIP3L mRNA, set 1: 0.111
- NDRG1 mRNA, set 1: 0.196

SLC10A3 (GeneID 8273)
- BNIP3L mRNA, set 1: 0.178
- NDRG1 mRNA, set 1: 1.44

ATAD5 (GeneID 79915)
- BNIP3L mRNA, set 1: 0.0969
- NDRG1 mRNA, set 1: 0.2

HMGB3 (GeneID 3149)
- BNIP3L mRNA, set 1: 0.13
- NDRG1 mRNA, set 1: 0.185

ZC3H11A (GeneID 9877)
- BNIP3L mRNA, set 1: 0.071
- NDRG1 mRNA, set 1: 0.0492

ZNF146 (GeneID 7705)
- BNIP3L mRNA, set 1: 0.0806
- NDRG1 mRNA, set 1: 0.0695

CHDH (GeneID 55349)
- BNIP3L mRNA, set 1: 0.111
- NDRG1 mRNA, set 1: 0.0667

TAF1A (GeneID 9015)
- BNIP3L mRNA, set 1: 0.0643
- NDRG1 mRNA, set 1: 0.0999

TAL2 (GeneID 6887)
- BNIP3L mRNA, set 1: 0.086
- NDRG1 mRNA, set 1: 0.0387

MAT1A (GeneID 4143)
- BNIP3L mRNA, set 1: 0.0921
- NDRG1 mRNA, set 1: 0.211

FBXO10 (GeneID 26267)
- BNIP3L mRNA, set 1: 0.0664
- NDRG1 mRNA, set 1: 0.177

DUSP8 (GeneID 1850)
- BNIP3L mRNA, set 1: 0.122
- NDRG1 mRNA, set 1: 0.209

TPST2 (GeneID 8459)
- BNIP3L mRNA, set 1: 0.0707
- NDRG1 mRNA, set 1: 0.364

OR8G1 (GeneID 26494)
- BNIP3L mRNA, set 1: 0.0814
- NDRG1 mRNA, set 1: 0.0984

GDPD2 (GeneID 54857)
- BNIP3L mRNA, set 1: 0.0498
- NDRG1 mRNA, set 1: 0.185

XPOT (GeneID 11260)
- BNIP3L mRNA, set 1: 0.0405
- NDRG1 mRNA, set 1: 0.538

MMP8 (GeneID 4317)
- BNIP3L mRNA, set 1: 0.0711
- NDRG1 mRNA, set 1: 0.135

Looked up above.
SLC10A3 (GeneID 8273), NDRG1 mRNA, set 1: 1.44
TEFM (GeneID 79736), NDRG1 mRNA, set 1 → 0.298
ACTR2 (GeneID 10097), BNIP3L mRNA, set 1 = 0.14
